# Data taken from patent publication US20190388510A1, “GLUCAGON-T3 CONJUGATES” (priority 2016, published 2019).
# Part of at least one peptide drawing is inferred or uncertain, most often the ends. *1 amine or outer side, *2 acyl side, *3 side chain or, on linkers, in order; H or OH if unused. Where a SMILES comes first, the peptide text is derived from it. Side-chain parts run from the residue outwards. [ ]: non-standard residue; d: D form. Thyronine(3,5,3'-I3) = N[C@@H](Cc1cc(I)c(Oc2ccc(O)c(I)c2)c(I)c1)C(=O)O; γGlu = O=C(O)[C@H](CCC(=O)[*:2])N[*:1]
# How the values were obtained:
# GcgR−/− mice = assay: Lipid and energy metabolism effects in global GcgR−/− mice; type: in vivo, mouse; conditions: 100 nmol kg-1 daily, 7 days
# Ucp1−/− mice = assay: Body weight and energy metabolism in Ucp1−/− mice; type: in vivo, mouse; conditions: Ucp1−/− mice vs wild-type
# iWAT = type: in vivo, mouse; conditions: H & E staining, 100 nmol kg-1 daily, 14 days
# TR = biological target: T1, TR (Homo sapiens, UniProt P10827); assay: TR transcriptional activity (DR4-luciferase reporter in HepG2 cells); type: cell-based; conditions: 1 μM
# T1 construct: expressed in transfected cells; host or cells: HepG2
# T1 sequence (P10827 1-410 isoform P10827-2): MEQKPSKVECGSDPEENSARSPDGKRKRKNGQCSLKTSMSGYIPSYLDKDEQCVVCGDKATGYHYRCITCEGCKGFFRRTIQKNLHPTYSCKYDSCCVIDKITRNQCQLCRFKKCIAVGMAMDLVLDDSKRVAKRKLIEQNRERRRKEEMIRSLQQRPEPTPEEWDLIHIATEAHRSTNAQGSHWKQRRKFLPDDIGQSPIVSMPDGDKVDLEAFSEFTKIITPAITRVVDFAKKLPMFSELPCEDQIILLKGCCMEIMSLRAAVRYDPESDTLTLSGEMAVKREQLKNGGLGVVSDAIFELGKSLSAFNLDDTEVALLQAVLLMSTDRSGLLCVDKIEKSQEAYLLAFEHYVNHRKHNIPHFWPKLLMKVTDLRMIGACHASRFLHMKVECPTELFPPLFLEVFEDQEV
# DIO mice = assay: Glycemic control in DIO mice; type: in vivo, mouse
# Description: (§1) Compounds were administered by repeated subcutaneous injections in the middle of the light phase at the indicated doses with the indicated durations. Co-administration of compounds was administered by single formulated injections. Body weights and food intake were measured every day or every other day after the first injection. All studies with wild-type mice were performed with a group size of n=8 or greater using mice on a C57B16j background.
# For assessment of glucose, pyruvate, and insulin tolerance during chronic treatment, the challenge tests were performed at least 24 hours after the last administration of compounds. The investigators were not blinded to group allocation during the in vivo experiments or to the assessment of longitudinal endpoints. All rodent studies were approved by and performed according to the guidelines of the Institutional Animal Care and Use Committee of the Helmholtz Center Munich, University of Cincinnati, Universite de Lyon, and in accordance with guidelines of the Association for the Assessment and Accreditation of Laboratory and Animal Care (AAALAC # Unit Number: 001057) and appropriate federal, state and local guidelines, respectively.
# (§2) Energy intake, energy expenditure, respiratory exchange ratio, and home-cage activity were assessed using a combined indirect calorimetry system (TSE Systems). O2 consumption and CO2 production were measured every 10 min for a total of up to 120 h (after 24 h of adaptation) to determine the respiratory quotient and energy expenditure after an initial treatment regimen. Food intake was determined continuously for the same time as the indirect calorimetry assessments by integration of scales into the sealed cage environment. Home-cage locomotor activity was determined using a multidimensional infrared light beam system with beams scanning the bottom and top levels of the cage, and activity being expressed as beam breaks.
# (§3) Blood was collected at the indicated times from tail veins or after euthanasia using EDTA-coated microvette tubes (Sarstedt), immediately chilled on ice, centrifuged at 5,000 g and 4° C., and plasma was stored at −80° C. For […] (FPLC) of cholesterol distribution in different lipoprotein fractions, fresh plasma from each treatment group was pooled (n=6-8) and ran over two Superose 6 HR columns in tandem. Cholesterol levels in the collected fractions were determined by colorimetric assay. Plasma insulin and T3 were quantified by an ELISA assay (Ultrasenstive Mouse Insulin ELISA and Rodent T3 ELISA; Alpco). Plasma FGF21 was quantified by an ELISA assay (Mouse FGF21 ELISA; Millipore). Plasma cholesterol, extracted hepatic cholesterol, triglycerides, ALT, and AST were measured using enzymatic assay kits (Thermo Fisher). Plasma creatinine and blood urea nitrogen were measured using enzymatic assay kits (Abcam). Plasma free fatty acids were measured using enzymatic assay kits (Wako). All assays were performed according to the manufacturers' instructions.
# Gene expression profiling in the liver, iWAT, eWAT, BAT, and heart were performed following treatment of mice according to the treatment paradigms explained in the figure legends for each specific analsysis. For tissue collection, mice were fasted for 4 h and treated with compounds 2 h prior to tissue collection. Gene expression was profiled with quantitative real-time RT-PCR using either TaqMan single probes or with specifically-designed TaqMan low-density array cards. The relative expression of the selected genes was normalized to the reference gene hypoxanthine-guanine phosphoribosyltransferase (Hprt).
# [1] = tested on: liver-specific Thrb−/− mice; assay: Lipid effects in liver-specific Thrb−/− mice; type: in vivo, mouse; conditions: 100 nmol kg-1 daily, 7 days
# Ldlr−/− mice = assay: Lipid handling and atherosclerotic plaque assessment in Ldlr−/− mice; type: in vivo, mouse
# [2] = tested on: HFHCD-fed male C57Bl6j mice; type: in vivo, mouse; conditions: 100 nmoles/kg daily, two weeks
# [3] = tested on: diet-induced obese (DIO) mice; type: in vivo, mouse; conditions: DIO mice on HFHSD
# Source text: For studies on lipid handling in wildtype mice (Western mice), male C57Bl/6j mice (Jackson Laboratories) were fed a atherogenic Western diet (Research Diets D12079B), which is a high-cholesterol diet (0.21% gm %) with 41% kcal from fat, 43% kcal from carbohydrates, and 17% kcal from protein. For studies on energy metabolism in obese mice (DIO mice), male C57Bl/6j mice (Jackson Laboratories) were fed a diabetogenic diet (Research Diets D12331), which is a high-sucrose diet with 58% kcal from fat 25.5% kcal from carbohydrates, and 16.4% kcal from protein. Both dietary challenges began at 8 weeks of age. HFHSD and HFHCD mice were single- or group-housed on a 12:12-h light-dark cycle at 22° C. with free access to food and water. Mice were maintained under these conditions for a minimum of 16 weeks before initiation of pharmacological studies and were between the ages of 6 months to 12 months old. All injections and tests were performed during the light cycle. Compounds were administered in a vehicle of 1% Tween-80 and 1% DMSO and were given by daily subcutaneous injections at the indicated doses at a volume of 5 μl per g body weight. Mice were randomized and evenly distributed to test groups according to body weight and body composition. If ex vivo molecular biology/histology/biochemistry analyses were performed, the entire group of mice for each treatment was analyzed and scored in a blinded fashion.
# as §1
# Whole-body composition (fat and lean mass) was measured using nuclear magnetic resonance technology (EchoMRI).
# as §2
# as §3, with “instructions. […]” for “instructions.”
# [4] = Ldlr−/− mice, 100 nmol kg-1 daily, 14 days
smiles,measurement,setting,value
"CSCC[C@H](NC(=O)[C@H](CC(C)C)NC(=O)[C@H](Cc1c[nH]c2ccccc12)NC(=O)[C@H](CCC(N)=O)NC(=O)[C@@H](NC(=O)[C@H](Cc1ccccc1)NC(=O)[C@H](CC(=O)O)NC(=O)[C@H](CCC(N)=O)NC(=O)[C@H](C)NC(=O)[C@H](CCCNC(=N)N)NC(=O)[C@H](CCCNC(=N)N)NC(=O)[C@H](CO)NC(=O)[C@H](CC(=O)O)NC(=O)[C@H](CC(C)C)NC(=O)[C@H](Cc1ccc(O)cc1)NC(=O)[C@H](CCCCN)NC(=O)[C@H](CO)NC(=O)[C@H](Cc1ccc(O)cc1)NC(=O)[C@H](CC(=O)O)NC(=O)[C@H](CO)NC(=O)[C@@H](NC(=O)[C@H](Cc1ccccc1)NC(=O)[C@@H](NC(=O)CNC(=O)[C@H](CCC(N)=O)NC(=O)[C@@H](CO)NC(=O)[C@@H](N)Cc1c[nH]cn1)[C@@H](C)O)[C@@H](C)O)C(C)C)C(=O)N[C@@H](CC(N)=O)C(=O)NCC(=O)NCC(=O)N1CCC[C@H]1C(=O)N[C@@H](CO)C(=O)N[C@@H](CO)C(=O)NCC(=O)N[C@@H](C)C(=O)N1CCC[C@H]1C(=O)N1CCC[C@H]1C(=O)N1CCC[C@H]1C(=O)N[C@@H](CO)C(=O)N[C@@H](CCCCNC(=O)CC[C@H](NC(=O)[C@@H](N)Cc1cc(I)c(Oc2ccc(O)c(I)c2)c(I)c1)C(=O)O)C(N)=O [glucagon/T3] (H-H[dS]QGTFTSDYSKYLDSRRAQDFVQWLMNGGPSSGAPPPSK([γGlu-Thyronine(3,5,3'-I3)])-NH2; N-terminus assumed)",effect to lower cholesterol,GcgR−/− mice; GcgR−/− mice vs wild-type,completely lost
same,effect to lower triglycerides,GcgR−/− mice; GcgR−/− mice vs wild-type,completely lost
same,effect to enhance energy expenditure,GcgR−/− mice; GcgR−/− mice,absent
same,effect to lower body weight,GcgR−/− mice; GcgR−/− mice,absent
same,effect to promote fat utilization (RER),GcgR−/− mice; GcgR−/− mice,absent
same,increase in energy expenditure,Ucp1−/− mice,diminished
same,magnitude of the shift in RER,Ucp1−/− mice,diminished
same,body weight lowering,"Ucp1−/− mice; HFHSD, 30° C., 100 nmol kg-1 daily, 7 days","blunted, but not completely silenced"
same,"iWAT morphology (multilocular nature, adipocyte size)",iWAT,increased the multilocular nature of inguinal WAT (iWAT) and reduced adipocyte size
same,transcriptional activity of a thyroid hormone response element (DR4) in the presence of TR,TR,elicited transcriptional activity
same,plasma levels of insulin,"DIO mice; DIO mice, chronic daily treatment",lowers
same,glucose tolerance / development of glucose intolerance or hyperglycemia,"DIO mice; DIO mice, chronic daily treatment, i.p. glucose 1.5 g kg-1",substantially improved compared to vehicle-treated controls
same,insulin sensitivity (insulin tolerance),"DIO mice; DIO mice, i.p. insulin 0.75 IU kg-1",improved insulin sensitivity
same,pyruvate tolerance (hepatic glucose output),"DIO mice; DIO mice, i.p. pyruvate 1.5 g kg-1",completely offsetting the gluconeogenic effects of glucagon
same,acute RER,DIO mice; light phase of the second day of treatment,prevented the glucagon-mediated increase in RER
same,circulating free fatty acids,DIO mice; single s.c. injection 100 nmol kg-1,acute decrease
same,effect to lower cholesterol,[1],lost
same,effect to lower triglycerides,[1],lost
same,atherosclerotic plaque size and lesion coverage at the aortic root,"Ldlr−/− mice; Ldlr−/− mice on HFHCD, 2 weeks of treatment, vs vehicle",reduced
same,"cholesterol in lipoprotein fractions (VLDL, LDL, HDL)",Ldlr−/− mice; [4],primarily lowered cholesterol stored in the very low-density lipoprotein (VLDL) and LDL fractions without influencing HDL levels
same,cholesterol lowering (plasma total cholesterol),Ldlr−/− mice; [4],confirmed
same,circulating levels of total cholesterol,[2],reduced circulating levels of total cholesterol
same,circulating levels of triglycerides,[2],reduced circulating levels of triglycerides
same,fraction of cholesterol bound to LDL and HDL,[2],to a similar extent as systemic administration of unconjugated T3
same,hepatic cholesterol content,[2]; vs vehicle,lowered hepatic cholesterol content
same,hepatocellular vacuolation (hepatic steatosis),[2]; vs vehicle,essentially reversing hepatic steatosis
same,home cage (ambulatory) activity,[3],did not cause an increase
same,"body composition (fat mass, lean mass)",[3]; 7 days,"due to a loss of fat mass, not lean mass"
same,food intake,[3]; 7 days,not increased
same,body weight absolute decrease from baseline,[3]; after a week of daily treatment,10%
same,respiratory exchange ratio (RER),[3]; days 2 to 3 of treatment,caused a decrease
same,whole-body energy expenditure,[3]; indirect calorimetry,substantially increased
